Assay results reported in the supplement of paper PMC12009310.
Counter-ions that a name gives are not always drawn. ± gives the standard deviation of the averaged measurements. Some of the results follow. Plates or batches differ in their baseline, so values are only roughly comparable.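 The cells are a mouse kidney inner medullary collecting duct line, silenced either for the ciliary gene Rpgrip1l or with a non-targeting control siRNA.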

System: mIMCD3
Assay: robust z score of cilia incidence (% cells with single cilium) vs plate controls; higher = more ciliated cells (rescue of cilia loss)
Settings: 10 µM; 48 h; siRNA: siRpgrip1l

| SMILES | robust z score of cilia incidence |
| --- | --- |
| Nc1nc2c(nc(Br)n2[C@@H]2O[C@@H]3COP(=O)(O)O[C@H]3[C@H]2O)c(=O)[nH]1 [8-Bromo-cGMP, sodium salt] | -15.5 ± 0.32 |
| c1ccc2oc(C3=NCCN3)cc2c1 [2-BFI hydrochloride] | -0.879 ± 0.4 |
| COc1ccccc1N1CCN(CCN2C(=O)c3ccccc3C(C)(C)C2=O)CC1 [ARC 239 dihydrochloride] | -10.2 ± 1.8 |
| COc1cc2ncnc(Nc3ccc(Oc4ccccc4)cc3)c2cc1OC | -9.13 ± 1.4 |
| O=c1[nH]ccc2c(S(=O)(=O)N3CCCNCC3)cccc12 [HA 1100 hydrochloride] | -4.72 ± 2.4 |
| N[C@H](C(=O)O)c1ccc(O)c(C(=O)O)c1 [(S)-3-Carboxy-4-hydroxyphenylglycine] | -3.35 ± 5.1 |
| CCOC(=O)c1ccc(OC(=O)CCCCCNC(=N)N)cc1 [Gabexate mesylate] | -27.1 ± 25 |
| O=C(CCCN1CCC(O)(c2ccc(Cl)cc2)CC1)c1ccc(F)cc1 [Haloperidol hydrochloride] | -25.6 ± 6.5 |
| CC1(CN2CCC(n3c(=O)[nH]c4ccccc43)CC2)OCc2ccccc2-n2cccc21 (centres undefined) | -23.4 ± 14 |
| Nc1ncnc2c1ncn2C1CCCO1 (centres undefined) | -195 ± 140 |
| Cc1cc(C)c(S(=O)(=O)Nc2cccc(C(F)(F)F)c2)c(C)c1 | -121 ± 110 |
| c1cc2c(cc1C1CCCCC1)c1c3n2CCNC3CCC1 (centres undefined) [Tetrindole mesylate] | -39.9 ± 2.3 |
| O=C1C(=O)N(Cc2ccc(Cl)c(Cl)c2)c2ccccc21 [Apoptosis Activator 2] | -51.7 ± 9.6 |
| O=C(NCCCCCCNC(=O)ON=C1CCCCC1)ON=C1CCCCC1 | -36.5 ± 22 |
| NCCNC(=O)c1ccc(Cl)cn1 [Lazabemide hydrochloride] | -8.41 ± 6.3 |
| CN(CC[C@@H](Oc1ccc(-c2ccccc2)cc1)c1ccc(F)cc1)CC(=O)O [ALX 5407 hydrochloride] | -20.7 ± 8.9 |
| COc1ccc2[nH]c(I)c(CCNC(C)=O)c2c1 [2-Iodomelatonin] | -4.59 ± 2.8 |
| CC[N+](CC)(CC)CCOc1ccc(/C=C/c2ccccc2)cc1 | -11.5 ± 3.1 |
| CCOc1ccccc1OC(c1ccccc1)C1CNCCO1 (centres undefined) [Reboxetine mesylate] | -15.7 ± 15 |
| CCOc1cc(CC(=O)N[C@@H](CC(C)C)c2ccccc2N2CCCCC2)ccc1C(=O)O [Repaglinide] | -8.31 ± 4.5 |

| SMILES | robust z score of cilia incidence |
| --- | --- |
| NS(=O)(=O)c1cc2c(cc1Cl)NC(C1CC3C=CC1C3)NS2(=O)=O (centres undefined) [Cyclothiazide] | -8.99 ± 0.23 |
| Nc1nc(-c2ccc(Cl)c(Cl)c2)c(-c2ccncc2)s1 [CGH 2466 dihydrochloride] | -17.3 ± 12 |
| O=C(O)Cn1c(C(=O)Nc2nc(-c3ccccc3Cl)cs2)cc2ccccc21 | -29.9 ± 13 |
| COc1ccc(CN2C(=O)C(=O)c3cc(OC(F)(F)F)ccc32)cc1 | -24.9 ± 16 |
| O=c1cc(-c2cccc3c2Sc2ccccc2S3)oc(N2CCOCC2)c1 | -14.2 ± 4.9 |
| OC(c1ccccc1)C1CCN(CCc2ccccc2)CC1 (centres undefined) | -18.9 ± 7.8 |
| CC(C)(C)c1ccc(S(=O)(=O)/C=C/C#N)cc1 | -17.2 ± 12 |
| COc1cc2ncnc(Nc3ccc(F)c(Cl)c3)c2cc1OCCCN1CCOCC1 [Iressa] | -24.5 ± 9.2 |
| CNCCC(Oc1ccc(C(F)(F)F)cc1)c1ccccc1 (centres undefined) [Fluoxetine hydrochloride] | -25.5 ± 5.6 |
| CC(C)c1ccccc1S(=O)(=O)c1cc(N)c2ncccc2c1[N+](=O)[O-] | -18.9 ± 11 |
| Fc1ccc([C@@H]2CCNC[C@H]2COc2ccc3c(c2)OCO3)cc1 [Paroxetine maleate] | -50.3 ± 15 |
| CC(=O)N(OCc1ccccc1)[C@H]1c2cc(C#N)ccc2OC(C)(C)[C@H]1O | -5.64 ± 1.9 |
| CCN(CC)CCOCCOC(=O)C1(c2ccccc2)CCCC1 [Carbetapentane citrate] | -46.8 ± 24 |
| Cc1ccc(OCC(O)C(C)NC(C)C)c2c1CCC2 (centres undefined) [ICI-118,551 hydrochloride] | -11.3 ± 1.5 |
| OC[C@H]1O[C@@H](n2cnc3c(N[C@H]4CCC[C@@H]4O)ncnc32)[C@H](O)[C@@H]1O | -20.3 ± 21 |
| O=[N+]([O-])c1cc(Cl)ccc1S(=O)(=O)N1CCN(Cc2ccccc2)CC1 | -10.8 ± 2.6 |
| O=C1OC(OC(=O)c2cccnc2Nc2cccc(C(F)(F)F)c2)c2ccccc21 (centres undefined) [Talniflumate] | -20.6 ± 5.1 |
| CC1CCN(CC[C@H]2CCCN2S(=O)(=O)c2cccc(O)c2)CC1 | -119 ± 100 |
| CC(C)(C)NC[C@H](O)COc1nsnc1N1CCOCC1 [(S)-Timolol maleate] | -7.04 ± 5.3 |

Molecules above with a nitro group on carbon:

| SMILES | robust z score of cilia incidence |
| --- | --- |
| CC(C)c1ccccc1S(=O)(=O)c1cc(N)c2ncccc2c1[N+](=O)[O-] | -18.9 ± 11 |
| O=[N+]([O-])c1cc(Cl)ccc1S(=O)(=O)N1CCN(Cc2ccccc2)CC1 | -10.8 ± 2.6 |
